According to PubChem BioAssay AID463183 (Sanford-Burnham Center for Chemical Genomics, 2010):
Some of the results follow. The main result of the screen is listed elsewhere. These columns were measured beside it and carry no call. The list favours compounds with an active or inconclusive main result.

Assay: hepatocyte lipid droplet accumulation inhibitors, confirmation, imaging, AML12 mouse hepatocytes, single concentration, high-content (AID 463183);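 also: cells counted after overnight compound exposure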
Details: BODIPY lipid droplet imaging, measured here: cell count, cytotoxicity, at 5.2 µM, droplets induced with 100 µM oleic acid
In the case of `FC(F)(F)COc1nc(N2CCOCC2)nc(N(c2ccccc2)c2ccccc2)n1`, the cell count is reported as 1560 cells. In the case of `CCC(C)C(=O)N1c2ccccc2C(=C2SC(C(=O)OC)=C(C(=O)OC)S2)C(=S)C1(C)C` (centres undefined), the cell count is reported as 1470 cells. With `CCOc1ccccc1NC(=O)CC1Nc2cc(C)c(C)cc2NC1=O` (centres undefined) the cell count was 1570 cells. With `COc1ccc(C(=O)O/N=C(\N)c2ccccn2)cc1` the cell count was 1550 cells. For `Cc1cc(C(=O)CN2C(=O)c3ccccc3S2(=O)=O)c(C)n1-c1ccccc1`, the cell count was 1580 cells. For `O=C(Cc1ccccc1)Nn1c(-c2ccccc2)nc2ccccc2c1=O`, the cell count was 1600 cells. `CN(C)Cc1ccc(O)c(CCc2ccccc2)n1` gave a cell count of 1600 cells. Work on `COc1n[nH]c(C(=O)Nc2cc(F)ccc2C)c1[N+](=O)[O-]` yielded a cell count of 1610 cells. `O=C1c2ccccc2C2=Nc3ccccc3SC(c3cccc(F)c3)C12` (centres undefined) gave a cell count of 1730 cells. `CCOc1ccc(CCNC(=O)CCC(=O)N2CCOc3ccc(C)cc32)cc1OCC` showed a cell count of 1640 cells. Work on `COc1ccccc1NC1=C(N2CCCCC2)C(=O)c2ccccc2C1=O` yielded a cell count of 1550 cells. Molecule `Nc1ccc2nc(Cc3ccccc3)[nH]c2c1` has a cell count of 1510 cells. `Cc1cc(C(=O)NC2CCCc3c2cnn3-c2ccc(C)c(C)c2)nc(C)n1` (centres undefined) gave a cell count of 1640 cells. In the case of `COc1ccc(CNC(=O)C2CCCN(C(=O)Nc3ccccc3OC)C2)cc1` (centres undefined), the cell count is reported as 1640 cells. In the case of `Cc1cc(NC(=O)c2cccc3ccccc23)cc(C)c1OCC(=O)N1CCOCC1`, the cell count is reported as 1580 cells. `CS(=O)(=O)N(CC(=O)Nc1cccc(Br)c1)Cc1ccccc1` gave a cell count of 1600 cells. For `COc1ncccc1C(=O)NC1CCCc2c1cnn2-c1ccc(C)c(C)c1` (centres undefined), the cell count was 1620 cells. Molecule `NC(=O)N/N=C/c1ccc(-c2ccc([N+](=O)[O-])cc2)o1` has a cell count of 1590 cells. Work on `CCCOc1ccc(/C=N/Nc2ccccc2[N+](=O)[O-])c(OCCC)c1` yielded a cell count of 1630 cells. `CCCCc1ccc(NC(=O)CSc2nnc(C)c(=O)n2N)cc1` showed a cell count of 1560 cells. With `COc1cccc(N=CC=C2OC(C)(C)C(C)(C)O2)c1` the cell count was 1630 cells. `CN(C(=O)CSc1cc(C(=O)c2nccn2C)c2ccccc2n1)c1ccccc1` showed a cell count of 1570 cells. With `Cc1ccc(C2=NC3(CCCCC3)N=C2SCC(=O)Nc2ccc3c(c2)OCCO3)cc1` the cell count was 1620 cells. Work on `CCC(C)(C)NC(=O)C(c1sccc1C)N(Cc1ccco1)C(=O)c1csnn1` (centres undefined) yielded a cell count of 1630 cells. In the case of `COc1ccc(C(C(=O)NC(C)(C)C)N(CC2CCCO2)C(=O)CCC(=O)Nc2cc(C)on2)cc1` (centres undefined), the cell count is reported as 1680 cells. Molecule `CCCOc1ccc(-c2csc(NC(=O)CN3C(=O)CCC3=O)n2)cc1` has a cell count of 1660 cells. For `Cc1cc(C)c2nc(SCC(=O)N3CC(=O)Nc4ccccc43)c(C#N)cc2c1`, the cell count was 405 cells. `c1cc2c(cc1-c1csc(NNC3=NCCCCC3)n1)OCCO2` showed a cell count of 1590 cells. `COc1ccc(C(C(=O)NC(C)(C)C)N(Cc2ccccc2)C(=O)CCC(=O)Nc2cc(C)on2)cc1` (centres undefined) showed a cell count of 1580 cells. For `CCOc1ccc(CCNC(=O)C2CCN(S(=O)(=O)N3CCCCC3)CC2)cc1OCC`, the cell count was 1610 cells. Molecule `CC(C)(C)C(=O)Cn1c(=O)n(CC2CCCO2)c(=O)c2ccccc21` (centres undefined) has a cell count of 1640 cells. For `CCc1c(C#N)c(SCCC(=O)Nc2ccc(OC)cc2)nc2c1C(=O)CC(C)(C)C2`, the cell count was 1540 cells. Work on `CSc1ccc(CN2CCN(C3CCCC3)C(CCO)C2)cc1` (centres undefined) yielded a cell count of 1560 cells. Molecule `CCC(C)C(NC(=O)c1ccccc1NC(=O)c1ccc(OC)cc1)C(=O)NCc1ccco1` (centres undefined) has a cell count of 1560 cells. With `Cc1cccc(C(C(=O)NC2CCCC2)N(C(=O)c2csnn2)C2CCCC2)c1` (centres undefined) the cell count was 1570 cells. In the case of `Cn1c(=O)c(C(=O)COC(=O)c2cc(C3CC3)nc3ccccc23)c(N)n(Cc2ccccc2)c1=O`, the cell count is reported as 1670 cells. Work on `CCOc1ccc(CCNC(=O)CS(=O)Cc2nc(-c3ccc(OC)cc3)oc2C)cc1OCC` (centres undefined) yielded a cell count of 1580 cells. Molecule `CCOc1nc(-c2ccncc2)nc2ccccc12` has a cell count of 1640 cells. `CC1(OC(=O)CCc2ccccc2)C(=O)C=C2C=C(c3ccc(C#N)cc3)N(CCc3c[nH]c4ccccc34)C=C2C1=O` (centres undefined) gave a cell count of 1510 cells.
